Substitutions are numbered along the chain they refer to. Names and notes keep the numbering of the source. These are yes or no findings as the source states them, for the method shown. Some binding calls cover weakened binding; strength is not graded here. For some assays here: Tags and fused reporters may be left off the sequences shown.
B1: humanized anti-Cad-11 antibody SDP081 (Vκ2/VH3) (antibody, IgG4, V domains shown)
VH: EVQLVQSGAEVKKPGASVKISCKASGYSFTGYFMNWVRQAPGQGLEWIGRINPYTGDTFYNQKFKGRATLTVDKSTSTAYMELSSLRSEDTAVYYCGRLGSRYWYFDVWGQGTTVTVSS
VL: DVLMTQTPLSSPVTLGQPASISCRSSQSIIHSNGNTYLEWYLQKPGQSPQLLIYKVSNRFSGVPDRFSGSGSGTDFTLKISRVEAEDVGVYYCFQGSHVPWTFGQGTKLEIK
notes: humanized IgG4 (S241P), kappa
B2: humanized anti-Cad-11 antibody SDP101 (Vκ2/VH5) (antibody, IgG4, V domains shown)
VH: B1 VH with I20V, A68V, L70I
VL: B1 VL
notes: humanized IgG4 (S241P), kappa
B3: humanized anti-Cad-11 antibody SDP061 (Vκ2/VH1) (antibody, IgG4, V domains shown)
VH: B1 VH with A9P, V11L, R38K, P41H, T76S, S84V, R87S, T91S
VL: B1 VL
notes: humanized IgG4 (S241P), kappa
B4: humanized anti-Cad-11 antibody SDP111 (Vκ3/VH1) (antibody, IgG4, V domains shown)
VH: B1 VH with A9P, V11L, R38K, P41H, T76S, S84V, R87S, T91S
VL: B1 VL with L3V
notes: humanized IgG4 (S241P), kappa
B5: humanized anti-Cad-11 antibody SDP151 (Vκ3/VH5) (antibody, IgG4, V domains shown)
VH: B1 VH with I20V, A68V, L70I
VL: B1 VL with L3V
notes: humanized IgG4 (S241P), kappa
B6: humanized anti-Cad-11 antibody SDP131 (Vκ3/VH3) (antibody, IgG4, V domains shown)
VH: B1 VH
VL: B1 VL with L3V
notes: humanized IgG4 (S241P), kappa
B7: humanized anti-Cad-11 antibody SDP121 (Vκ3/VH2) (antibody, IgG4, V domains shown)
VH: B1 VH with R38K
VL: B1 VL with L3V
notes: humanized IgG4 (S241P), kappa
B8: humanized anti-Cad-11 antibody SDP071 (Vκ2/VH2) (antibody, IgG4, V domains shown)
VH: B1 VH with R38K
VL: B1 VL
notes: humanized IgG4 (S241P), kappa
B9: humanized anti-Cad-11 antibody SDP091 (Vκ2/VH4) (antibody, IgG4, V domains shown)
VH: B1 VH with I20V, L70I
VL: B1 VL
notes: humanized IgG4 (S241P), kappa
B10: humanized anti-Cad-11 antibody SDP141 (Vκ3/VH4) (antibody, IgG4, V domains shown)
VH: B1 VH with I20V, L70I
VL: B1 VL with L3V
notes: humanized IgG4 (S241P), kappa
B11: humanized anti-Cad-11 EC1 antibody SDP051 (Vκ1/VH5) (antibody, IgG4, V domains shown)
VH: B1 VH with I20V, A68V, L70I
VL: B1 VL with S68T
notes: humanized IgG4 (S241P), kappa
B12: humanized anti-Cad-11 antibody SDP041 (Vκ1/VH4) (antibody, IgG4, V domains shown)
VH: B1 VH with I20V, L70I
VL: B1 VL with S68T
notes: humanized IgG4 (S241P), kappa
B13: humanized anti-Cad-11 antibody SDP021 (Vκ1/VH2) (antibody, IgG4, V domains shown)
VH: B1 VH with R38K
VL: B1 VL with S68T
notes: humanized IgG4 (S241P), kappa
B14: humanized anti-Cad-11 antibody SDP031 (Vκ1/VH3) (antibody, IgG4, V domains shown)
VH: B1 VH
VL: B1 VL with S68T
notes: humanized IgG4 (S241P), kappa
B15: humanized anti-Cad-11 antibody SDP011 (Vκ1/VH1) (antibody, IgG4, V domains shown)
VH: B1 VH with A9P, V11L, R38K, P41H, T76S, S84V, R87S, T91S
VL: B1 VL with S68T
notes: humanized IgG4 (S241P), kappa

target: T1, recombinant Cad-11 EC1 human IgG1 fusion protein (R&D Systems Cat. No. 1790-CA-050) (human) (UniProt P55287); assay: competition ELISA: antibody dilution series premixed with biotinylated SYN0012/H1M1 (0.1 µg/ml) on plate-coated recombinant human Cad-11 EC1 fusion protein; OD450 = bound biotinylated SYN0012
T1 sequence: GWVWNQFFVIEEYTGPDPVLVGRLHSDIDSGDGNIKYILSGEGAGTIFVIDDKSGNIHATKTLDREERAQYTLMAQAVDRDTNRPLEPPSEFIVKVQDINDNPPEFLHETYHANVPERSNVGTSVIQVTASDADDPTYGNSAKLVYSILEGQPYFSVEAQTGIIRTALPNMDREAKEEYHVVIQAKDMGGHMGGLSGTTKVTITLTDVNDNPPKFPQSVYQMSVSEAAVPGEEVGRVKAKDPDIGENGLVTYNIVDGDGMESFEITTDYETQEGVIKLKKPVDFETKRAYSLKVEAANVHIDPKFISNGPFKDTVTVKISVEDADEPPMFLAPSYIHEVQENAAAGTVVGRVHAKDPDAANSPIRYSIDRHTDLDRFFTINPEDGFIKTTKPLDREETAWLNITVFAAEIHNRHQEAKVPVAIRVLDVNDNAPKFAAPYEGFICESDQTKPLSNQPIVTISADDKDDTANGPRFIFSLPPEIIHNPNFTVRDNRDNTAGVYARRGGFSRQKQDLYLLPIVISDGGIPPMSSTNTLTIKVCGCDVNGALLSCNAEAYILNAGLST

binding, binds:
B1
B2
B3
B4
B5
B6
B7
B8
B9
B10

target: T2, BSA coupled 37-mer Cad-11 peptide encompassing the Cad-11 immunogen (UniProt P55287); assay: ELISA, cadherin peptide coated at 50 ng/ml, antibody titrated, A450
T2 sequence (peptide, linked to BSA, looked up): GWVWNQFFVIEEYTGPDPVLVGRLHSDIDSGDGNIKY

binding, binds:
B11

target: T1, recombinant Cad-11 EC1 human IgG1 fusion protein (R&D Systems Cat. No. 1790-CA-050) (human); assay: competition ELISA on coated recombinant human Cad-11 EC1 fusion protein; competitor biotinylated SYN0012 at 0.1 µg/ml, streptavidin-HRP, OD450

binding, binds:
B12
B13
B14
B15
B11

target: T3, recombinant his-tagged human Cad-11 (R&D Systems) (human) (UniProt P55287); assay: SPR, rhCad-11 immobilised on the chip, SDP051 injected
T3 sequence: T1 sequence

binding, binds:
B11

target: T1, recombinant Cad-11 EC1 human IgG1 fusion protein (R&D Systems Cat. No. 1790-CA-050) (human); assay: competition ELISA against biotinylated SYN0012

binding, binds:
B1
B2
B3
B4
B5
B12
B6
B7
B8
B13
B14
B15
B11
B9
B10

target: T4, BSA coupled 37-mer Cad-8 peptide (sequence corresponding to the Cad-11 immunogen) (UniProt P55286); assay: ELISA, BSA-coupled 37-mer cadherin peptide coated at 500 ng/ml, antibody titrated, A450
T4 sequence (peptide, linked to BSA, looked up): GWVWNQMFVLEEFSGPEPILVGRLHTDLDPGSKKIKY

binding, binds:
B1
B2
B3
B4
B5
B12
B6
B7
B8
B13
B14
B15
B9
B10

target: T5, BSA coupled 37-mer Cad-18 peptide (sequence corresponding to the Cad-11 immunogen) (UniProt Q13634); assay: as above
T5 sequence (peptide, linked to BSA, looked up): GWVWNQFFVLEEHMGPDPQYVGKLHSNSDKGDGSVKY

binding, binds:
B1
B2
B4
B5
B12
B6
B7
B8
B13
B14
B15
B9
B10

target: T2, BSA coupled 37-mer Cad-11 peptide encompassing the Cad-11 immunogen; assay: as above

binding, binds:
B1
B2
B3
B4
B5
B12
B6
B7
B8
B13
B14
B15
B11
B9
B10

Source: US20110045003A1 (SYNOVEX, published 2011)
